Measured values taken from patent publication US20190100555A1, “EYE-CARE PEPTIDE, ITS COMPOSITION AND METHOD OF USING THE SAME” (PRO SUNFUN BIOTECH RESEARCH AND DEVELOPMENT CO., LTD., priority 2017, published 2019).
Not every detail of the peptide structures is certain; ends, links or a residue may be inferred. Peptide text beside a SMILES is read from it.

System: HCEC corneal epithelial cells
Experiment: Transwell migration assay
Format: cell-based, Human

SMILES: CC(C)C[C@H](NC(=O)[C@@H]1CCCN1C(=O)[C@H](CC(N)=O)NC(=O)[C@@H](N)CCCNC(=N)N)C(=O)N[C@@H](CCC(=O)O)C(=O)N[C@@H](CCC(=O)O)C(=O)N[C@H](C(=O)O)[C@@H](C)O [Peptide NO. 12, ArgAsnProLeuGluGluThr] (H-RNPLEET-OH)
- migration of HCEC corneal epithelial cells (24 hours, 0, 2, 5, 10 and 25 μg/ml, P<0.05): enhanced migration
- migration of HCEC corneal epithelial cells (48 hours, 0, 2, 5, 10 and 25 μg/ml, P<0.01): enhanced migration
